# Screening data, single-dose tests

The values are deposited in ChEMBL (CHEMBL3988442, “University of Dundee, Small-Polar-MMV Screening Library” (2021)).

Results are given as percent effect.
How 0% and 100% were set is not recorded. Most values in the screen are low, and negative values occur.
The compounds are a random part of those screened.

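Assay of Toxoplasma gondii numbers, read through their beta-galactosidase reporter with a colour substrate. Tested at 50 µM. Higher reads as fewer parasites (inferred from which compounds were picked for retests). Size under these conditions: about 18,000 compounds, about 170 of them at 50% or above in at least one test.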

With Cc1ocnc1CNC(=O)c1ccc(Br)cn1 the screen gave 1.589%. For CCC(CO)N1CCN(C(=O)c2cncc(F)c2)CC1 (stereo not shown) the result was 17.31%. For CCOCCC(=O)N(C)Cc1cc(C(C)C)no1 the result was 1.962%. COCCN1CCCN(C(=O)C(C)S(C)(=O)=O)CC1 (stereo not shown) read -20.55%. CC(C)CC(NC(=O)CNC(N)=O)c1ncnn1C (stereo not shown) gave -8.533%. With N#Cc1nc(-c2ccccc2)oc1NCCCO the screen gave 0.3128%. CCC1CN(C)c2ccccc2CN1CCC(=O)NC (stereo not shown) gave 15.9%.

Result for CC(C#N)CN(C)c1ncnc2c1cnn2CCO (stereo not shown) was 14.61%. With NCc1cccc(C(=O)NCc2ccco2)c1 the screen gave 3.594%. Result for NCc1ccc(-n2ccnc2)cc1 was 0.2532%. CN(C)CCOc1ccc(NS(C)(=O)=O)cc1Cl gave 2.061%. With CC(C)N(C)CC(=O)NCCn1cccc1 the screen gave 7.108%. With OC[C@@H]1CCCN1Cc1cccc(F)c1F the screen gave -1.103%. With CCOC(=O)NC1CCC(NC(=O)C2CCC2)CC1 (stereo not shown) the screen gave 0.5853%.

For NC1(c2nc(=O)c3c([nH]2)CCC3)CCCC1 the result was 5.243%. For N#Cc1ccnc(SCC(=O)Nc2ccncc2)c1 the result was 98.13%. CC(=O)N1CC(NC(=O)c2cc(C)cc(Br)c2)C1 gave -6.193%. For CC1CCCN(C(=O)c2ccc(S(C)(=O)=O)cc2)C1 (stereo not shown) the result was -5.453%. With CN1CCN(C(=O)COc2ccc(F)cc2F)CC1 the screen gave 0.02843%. With CC(C)(C)C(=O)Cc1ccncc1 the screen gave -8.006%. Result for O=C(NC1CCCOC1)c1ccc2c(c1)OCCO2 (stereo not shown) was -3.229%.

With N#CC(c1ccc(F)cc1)N1CCNCC1 (stereo not shown) the screen gave 8.635%. With O=C(CCc1cccnc1)N1CC(N2CCOCC2)C1 the screen gave -5.43%. CCCN(CCN(C)C)C(=O)CCCOC gave 1.095%. Result for CC(Cc1ccco1)NS(=O)(=O)N1CCOCC1 (stereo not shown) was 99.87%. Result for Cc1cccc(CNCCS(=O)(=O)N2CCOCC2)c1 was -2.619%. Result for CCCn1ccnc1CNC(=O)C(C)NC(=O)OC (stereo not shown) was 0.7196%. For CCn1ccnc1CNC(=O)c1ccc2c(c1)CCO2 the result was -16.22%.

With O=S(=O)(CCNC1CCCSC1)NCC1CCC1 (stereo not shown) the screen gave -0.5488%. O=C1CC(C(=O)NCCNC(=O)c2ccccc2)CN1 (stereo not shown) read -9.828%. With CCCOc1cc(CNC(=O)c2csnc2C)ccn1 the screen gave 17.13%. Result for COCC(C)NC(=O)CSc1ccc(C(C)=O)cc1F (stereo not shown) was -4.113%. Result for CCC1(CO)CCCN(CCCC(N)=O)C1 (stereo not shown) was -2.531%. CS(=O)(=O)NCCC(=O)Nc1cccc2c1CCCC2 read 4.062%. COC(=O)Cn1cnc2c(=O)n(C)c(=O)n(C)c21 read 0.7108%.

For COCCNS(=O)(=O)c1ccc(C#N)cc1 the result was -8.567%. Result for CC(C)CC1C(=O)NCCN1CC(=O)NC1CC1 (stereo not shown) was -10%. O=C(c1ccccc1)N1CC(O)C1 gave -8.98%. Result for CCCn1ncc(CN(C)CCC(=O)NC)c1C was -8.841%. With O=C([C@@H]1CCCN1CCn1cncn1)N1CCOCC1 the screen gave -25.02%. Result for CN1CCCN(C(=O)c2ccc3ccccc3n2)CC1 was 7.808%. With COc1ccc(CCNC(=O)CSc2nncs2)cc1 the screen gave -20.25%.

CN(C)c1ncccc1CNC(=O)COCC1CC1 read 6.183%. For Cc1ccccc1CSCC(N)=O the result was 9.58%. COc1cccc(SCC(=O)N2CCOC(C)C2)c1 (stereo not shown) gave -2.165%. Result for Cc1nn(CCO)c(C)c1CNC(C)Cn1cccn1 (stereo not shown) was 4.347%. For CNCCCNCc1ccc2c(c1)n(C)c(=O)n2C the result was -4.917%. With Cc1cc(C(=O)N(C)Cc2cccc(C#N)c2)[nH]n1 the screen gave 12.58%. COCc1nc(CNc2nc(N)ncc2C)no1 read -14.58%.

Result for CCc1nc(CNC(=O)NC2CCCN(C)C2)cs1 (stereo not shown) was 12.12%. With CCC(=O)N1CCCN(C(=O)C(N)C(C)(C)C)CC1 (stereo not shown) the screen gave 9.824%. For CCSCCC(C)N (stereo not shown) the result was 4.057%.

Some entries from above, unchanged:

compound	percent effect
CCC1(CO)CCCN(CCCC(N)=O)C1 (stereo not shown)	-2.531
COc1ccc(CCNC(=O)CSc2nncs2)cc1	-20.25
NCc1cccc(C(=O)NCc2ccco2)c1	3.594